These results are taken from PubChem BioAssay AID493014 (National Center for Advancing Translational Sciences (NCATS), 2011).

As usually defined, the AC50 is the concentration at which the activity in the assay is half-maximal.

The other results are listed elsewhere or left out. These are further read-outs of the screen, such as a control signal, another cell line or another target. No call is given for them. Most of these compounds were active or inconclusive in the main read-out, so they are no random draw. Words in brackets tell the shape of the fitted curve; partial curves, single points and poor fits give uncertain potencies.

A short description of this assay: qHTS Assay to Find Inhibitors of Chronic Active B-Cell Receptor Signaling. The note with it: ABC-DLBCL IkBa-CBG/CBR reporter, luminescence ratio (green luciferase fused to IkBa over red control in TMD8 lymphoma cells), 4 h. Put shortly: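 Concentration-response series (up to 46 uM) were applied to TMD8 dual-reporter cells for 4 h at 37C with doxycycline. Green/red ratio, after filter-overlap correction, defined %Activity; red signal alone was normalised to basal cells and zero luminescence.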
For orientation: qHTS replaces the single test concentration by a dilution series.

Setting [1] is: measured here: CBR red luminescence, cell number.
The mark [2] stands for this setting: measured here: IkBa-CBG green luminescence.

In the case of `O=C1c2ccccc2C(Nc2ccc(S(=O)(=O)N3CCOCC3)cc2)N1Cc1ccco1` (stereo unspecified), the AC50 under setting [1] is 6.51 µM [rising, single point].

`OCCCCNCc1ccc(OCc2ccc(Cl)cc2Cl)cc1`: the AC50 under setting [1] is 35.5 µM [falling, single point]. Turning to `Cc1ccc(SCCNC(=O)CN2C(=O)c3ccccc3S2(=O)=O)cc1`, under setting [1], the half-maximal activity concentration (AC50) was 25.1 µM [rising, partial curve, poor fit]. With `O=[N+]([O-])c1ccc(N2CCSCC2)cc1`, the AC50 under setting [1] is 11.2 µM [rising, partial curve, poor fit]. On to `O=C(O)CSc1nc(SCc2ccccc2Cl)nc2c1CCCC2`, for which, under setting [1], the AC50 was 1.64 µM [falling, full curve]. As to `Clc1ccc(-c2noc(CSc3nnc(-c4ccncc4)n3-c3ccccc3)n2)cc1`, the AC50 under setting [1] was 29.1 µM [falling, single point]. With `O=C(CSc1nnc(-c2ccc(S(=O)(=O)N3CCOCC3)cc2)o1)c1ccccc1F`, under setting [1], the AC50 was 0.316 µM [rising, full curve, poor fit]. Consider `Cc1c(Cl)cccc1NC(=O)c1cc(C2CC2)on1`, for which the AC50 under setting [1] was 12.6 µM [falling, partial curve]. Turning to `COc1cc2nc(C3CCC3)nc(N3CCN(c4ccccc4OC)CC3)c2cc1OC`, under setting [1], the AC50 was 29.1 µM [falling, single point]. Take `O=C1/C(=C\c2ccc(O)cc2)SC(=S)N1Cc1ccccc1`: under setting [1], the half-maximal activity concentration (AC50) is 17.8 µM [rising, single point].

For `O=C(OCC(=O)N1CCN(C(=O)c2ccco2)CC1)c1cccc(O)c1`, the AC50 under setting [1] is 0.0891 µM [falling, full curve, poor fit]. As to `CCSc1nnc(-c2cccc(S(=O)(=O)N(CC)CC)c2)n1Cc1ccccc1`, under setting [1], the AC50 was 17.8 µM [falling, single point].

As to `Cc1ccccc1N1C(=O)CC(N2CCN(C(=O)c3ccco3)CC2)C1=O` (stereo unspecified), the AC50 under setting [1] is 5.62 µM [rising, partial curve, poor fit].

For `COc1ccc(N2CC(=O)N(c3ccccc3)C2=S)cc1`, under setting [1], the AC50 is 16.4 µM [falling, single point].

As to `O=C1NCCCC1C(=O)N/N=C/c1ccc(Cl)cc1` (stereo unspecified), the AC50 under setting [1] was 5.01 µM [falling, partial curve, poor fit].

For the compound `O=C(COC(=O)c1cc(-c2cccs2)nc2ccccc12)NCc1ccco1`, under setting [1], the AC50 is 17.8 µM [falling, single point]. Turning to `COc1cc(OC)cc(C(=O)NC(=S)Nc2ccc3[nH]c(=O)[nH]c3c2)c1`, the AC50 under setting [1] was 3.16 µM [falling, partial curve, poor fit]. Take `Cc1cc(NC(=O)COC(=O)Cn2c(C)csc2=O)ccc1Br`: the AC50 under setting [1] was 3.98 µM [rising, partial curve]. For `CCN(C(=O)C1CCCN(c2nc(-c3ccc(OC)cc3)no2)C1)c1ccc(OC)cc1` (stereo unspecified), under setting [1], the AC50 is 25.1 µM [falling, single point].

In the case of `CN(C)c1ccc(/C=N/n2cnn(Cc3ccccc3Cl)c2=S)cc1`, the AC50 under setting [1] is 2.51 µM [rising, partial curve]. For the compound `COc1ccc(C2=NN(C)C(=NCc3ccccc3)SC2)cc1`, the AC50 under setting [1] is 8.91 µM [rising, partial curve]. Take `CCNc1ccc(S(=O)(=O)N(C)C)cc1NCC(=O)Nc1c(F)cccc1F`: the AC50 under setting [1] is 4.61 µM [rising, partial curve, poor fit]. With `CC1=CC(C)(C)Nc2ccc(OS(=O)(=O)c3ccc(C)cc3)cc21`, under setting [1], the AC50 was 8.91 µM [rising, partial curve, poor fit]. Regarding `COc1ccc2cc(CCNC(=O)c3ccco3)c(=O)[nH]c2c1`, the AC50 under setting [1] is 1.12 µM [rising, partial curve]. On to `CSc1nc(N)nc(SCC(=O)C(C)(C)C)c1C#N`, for which, under setting [1], the AC50 is 6.51 µM [rising, single point]. Same read-out and setting: the value for `COc1cc2c(cc1OC)C1C(C(=O)Nc3ccccc3N3CCN(C)CC3)c3ccccc3C(=O)N1CC2` (stereo unspecified) was 35.5 µM [falling, partial curve, poor fit]. The same measure, in the same setting: the value for `S=c1[nH]c(-c2ccc(Br)cc2)cn1CCc1ccccc1` was 0.447 µM [rising, full curve].

Consider `Cc1ccnc(NC(=O)c2cnc(Cl)c(Cl)c2)c1`, for which the AC50 by setting is: under setting [1], 12.6 µM [falling, single point]; under setting [2], 8.91 µM [rising, partial curve, poor fit]. For the compound `COc1ccc(C(=O)NC(=S)NNC(=O)c2ccccc2O)cc1`, the AC50 under setting [1] is 10 µM [falling, partial curve, poor fit].

Take `CC1CCN(C(=O)CS(=O)(=O)Cc2ccccc2)CC1`: the AC50 under setting [1] was 0.891 µM [rising, full curve, poor fit]. The same measure, in the same setting: the value for `CC1=CC(=O)C=C(C)C1=NOc1ccc([N+](=O)[O-])cc1` was 6.31 µM [rising, partial curve]; that for `O=C(NCCc1ccccc1)c1nc2ncccn2n1` was 4.61 µM [falling, partial curve, poor fit]. In the case of `Cc1ccc(C)c(NC(=O)CSc2n[nH]c(-c3ccncc3)n2)c1`, the AC50 under setting [1] is 18.4 µM [rising, partial curve, poor fit]. For `CN(C)c1ccc(NC(=S)c2ccccn2)cc1`, the AC50 under setting [1] was 6.51 µM [falling, partial curve]. In the case of `Brc1ccc2ncnc(NCc3cccnc3)c2c1`, the AC50 under setting [1] was 3.55 µM [rising, partial curve, poor fit]. In the case of `COc1ccc(NC(=O)CSc2nc3sc(C)cc3c(=O)n2C)cc1`, the half-maximal activity concentration (AC50) under setting [1] was 0.0891 µM [rising, full curve, poor fit]. For `Cc1c(NC(=O)C2(c3ccc(Cl)cc3)CCCC2)c(=O)n(-c2ccccc2)n1C`, the half-maximal activity concentration (AC50) under setting [1] is 14.6 µM [rising, partial curve, poor fit]. `COc1ccc(-c2nnc(SCC(=O)c3ccc(O)cc3O)o2)cc1`: under setting [1], the AC50 is 5.01 µM [falling, partial curve].

Turning to `COc1cc(NC(=O)c2cccc([N+](=O)[O-])c2)ccc1NC(=O)c1ccco1`, the AC50 under setting [1] is 2.82 µM [rising, partial curve, poor fit]. As for `O=C(O)/C=C/C(=O)Nc1ccc(C2(c3ccc(NC(=O)/C=C/C(=O)O)cc3)c3ccccc3-c3ccccc32)cc1`, under setting [2], the AC50 is 22.4 µM [rising, partial curve, poor fit]. Regarding `CCOC(=O)Cc1csc(NC(=O)/C=C/c2ccc(Br)o2)n1`, the AC50 under setting [1] was 3.55 µM [falling, partial curve]. Still for that read-out and setting: the value for `COCCN(Cc1cn(C)nc1-c1ccc(Oc2ccccc2)cc1)C(C)C` was 7.08 µM [rising, partial curve]. On the same count and under the same terms, the value for `O=C(COC(=O)c1cc(S(=O)(=O)NCc2ccccc2)ccc1O)c1cc2ccccc2o1` was 20 µM [falling, single point]. Consider `COc1ccc(C(=O)CSc2nc3[nH]ncc3c(=O)[nH]2)cc1`, for which the AC50 under setting [1] is 11.2 µM [falling, partial curve, poor fit]. For `CN(Cc1ccccc1)C(=O)CSc1nc2ccccc2c(=O)n1Cc1ccco1`, the AC50 under setting [1] is 20 µM [falling, partial curve, poor fit].

For the compound `CC(=O)NN1C(=O)/C(=C/c2ccc(Br)o2)SC1=S`, under setting [1], the AC50 is 2.91 µM [falling, full curve, poor fit].

On to `O=C(CC(=O)c1ccccc1)Nc1ccccn1`, for which the AC50 under setting [1] was 14.1 µM [falling, partial curve]. Regarding `Cc1ccc(O)c(NC(=O)c2cc([N+](=O)[O-])ccc2Cl)c1`, under setting [1], the AC50 was 15.8 µM [falling, single point]. For the compound `O=c1sc2ccccc2n1CCCOc1ccccc1`, under setting [1], the AC50 is 3.16 µM [rising, partial curve].

`O=C(Nc1ccc(O)c(C(=O)O)c1)c1cccc(NC(=O)c2ccco2)c1`: the AC50 under setting [1] is 15.8 µM [falling, single point].

For the compound `CC1Sc2ccc(C(=O)Nc3ncccc3O)cc2NC1=O` (stereo unspecified), the AC50 under setting [1] was 3.26 µM [falling, partial curve]. In the case of `O=C(Nc1c(C(=O)O)[nH]c2ccccc12)c1cccc(C(F)(F)F)c1`, the AC50 under setting [1] is 35.5 µM [rising, single point].

As for `COC(C[C@@H]1O[C@@H]1[C@H](O)COCc1ccccc1)OC`, the AC50 under setting [1] was 29.1 µM [rising, single point]. Turning to `O=C(Cn1cnc([N+](=O)[O-])c1)Nc1cc(Oc2ccc(Cl)cc2Cl)cc([N+](=O)[O-])c1`, the half-maximal activity concentration (AC50) was 29.1 µM [falling, single point] under setting [1] and 23.1 µM [rising, partial curve, poor fit] under setting [2].

For `O=C(Nc1nccs1)C1CCCN(S(=O)(=O)c2cccnc2)C1` (stereo unspecified), the AC50 under setting [1] was 1.46 µM [falling, full curve].

Turning to `Cc1ccc(-c2nnc(N(C)C(=O)c3cccnc3)s2)cc1`, under setting [1], the AC50 was 1.12 µM [rising, full curve, poor fit].

On to `CCOC(=O)/C=C(\C)N1N=C(c2ccccc2)CC1c1ccccc1` (stereo unspecified), for which the AC50 under setting [1] is 0.447 µM [rising, partial curve, poor fit]. On to `COc1ccc(C2/C=C\CN(S(=O)(=O)c3ccc(C)cc3)[C@H](Cc3ccccc3)C(=O)N2Cc2ccc(F)cc2)cc1` (stereo partly specified), for which the AC50 under setting [1] was 12.6 µM [falling, single point].

With `CCN1C(=O)N/C(=C/c2ccc(C)o2)C1=O`, the AC50 runs as follows: under setting [1], 29.1 µM [falling, single point]; under setting [2], 20.6 µM [falling, single point]. Regarding `COC(=O)C1=CN(Cc2ccccc2)C=C(C(=O)OC)C1c1cc(F)ccc1F`, the half-maximal activity concentration (AC50) under setting [1] is 15.8 µM [falling, single point].

Take `C=CCC(Nc1ccccc1)C12C=CC(O1)C(C(=O)OC)=C2C(=O)OC` (stereo unspecified): under setting [1], the AC50 is 2.31 µM [falling, full curve]. Turning to `COc1ccc(NC(=O)CC(=O)Nc2ccc(OC)cc2OC)c(OC)c1`, the AC50 under setting [1] was 11.6 µM [falling, partial curve, poor fit]. With `O=C(Nc1cccc(-c2nc3ccccc3s2)c1)c1cc(=O)c2ccccc2o1`, the AC50 under setting [1] is 14.6 µM [falling, partial curve].
